Data as given in PubChem BioAssay AID686943 (Drosophila RNAi Screening Center, 2013)
In all, the deposit lists about 23,000 reagents; below is an unselected part of those that have a named target and a result. 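Extra replicates exist only for a retested subset of genes; insulin dose and duration not given; both raised and lowered dpERK matter.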 Reagents against one gene are numbered here. A plus sign joins genes that one reagent is predicted to hit. No sequences are given here. Not given: the amount of reagent, the time to read-out.

Screen: 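Fly genes whose loss alters ERK activation after insulin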 (primary screen)
Cell system: Drosophila S2R+ haemocyte-like cells expressing YFP-tagged ERK (Rolled)
Reagents: long dsRNA against Drosophila genes
Conditions: insulin stimulation versus unstimulated cells; dose and duration not given
Measured: 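Per-plate z-scores of phospho-ERK immunostaining normalised to YFP-tagged ERK, measured with and without insulin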
Scale: replicate 1, z-score of dpERK with insulin and replicate 2, z-score of dpERK with insulin: higher = more active ERK per ERK-YFP after insulin; replicate 1, z-score of dpERK under basal conditions: higher = more basal active ERK per ERK-YFP; replicate 1, z-score of ERK-YFP with insulin: higher = more YFP-tagged ERK signal

gene | reagent no. | replicate 1, z-score of dpERK with insulin | replicate 2, z-score of dpERK with insulin | replicate 1, z-score of dpERK under basal conditions | replicate 1, z-score of ERK-YFP with insulin
fid (GeneID 43148) | 1 | -0.44 | -0.15 | -0.01 | 1.52
fid (GeneID 43148) | 2 | -2.11 | -1.6 | 1.12 | 2.4
Hsp70Aa + Hsp70Bb + Hsp70Ba + 3 more | 1 | 0.16 | -2.2 | -0.05 | -4
RpL7-like (GeneID 34625) | 1 | 1.23 | -1.54 | -0.49 | -0.66
eIF3e (GeneID 39877) | 1 | -0.63 | -1.9 | -1.26 | -2.03
pncr004:X (retired record) (GeneID 3772236) | 1 | 0.22 | 0.22 | 0.58 | 0.04
Or22c (GeneID 33381) | 1 | 1.21 | 0.29 | -0.24 | -0.42
CG14770 (GeneID 31085) | 1 | 0.06 | 1.15 | -0.29 | 1.62
CG17261 (GeneID 33522) | 1 | -0.79 | -0.67 | -0.24 | -0.99
Ance-4 (GeneID 35909) | 1 | 0.15 | -0.47 | -0.22 | -0.59
Diedel3 (GeneID 50358) | 1 | -1.07 | 0.17 | -0.39 | 0.68
mud (GeneID 44839) | 1 | 0.15 | -0.85 | -0.24 | 0.23
CG42820 (GeneID 34161) | 1 | -0.27 | 1.6 | -0.13 | 1.35
CG15357 (GeneID 50192) | 1 | 0.75 | 0.6 | -0.45 | 0.18
Su(H) (GeneID 34881) | 1 | 0.23 | 0.38 | -0.76 | -0.48
CG32815 (GeneID 318224) | 1 | 0.31 | -0.16 | 0.53 | 0.29
CG32815 (GeneID 318224) | 2 | 0.15 | 0.52 | 0.66 | 0.26
atos (GeneID 36243) | 1 | -0.28 | -2.03 | -0.18 | -0.53
CG9776 (GeneID 40546) | 1 | -0.13 | 0.46 | -0.07 | 0.26
CG5274 (GeneID 40257) | 1 | -0.57 | -0.53 | 1.65 | 0.38
CR18275 + CR18166 + CG32817 | 1 | 2.05 | -0.1 | -0.38 | -0.65
LeuRS (GeneID 326262) | 1 | 1.53 | 0.59 | -0.84 | -0.36
Sln (GeneID 36263) | 1 | 0.35 | -0.33 | 0.38 | -0.7
Osi3 (GeneID 40757) | 1 | 0.77 | 0.47 | -0.67 | 0.06
CG33259 (GeneID 2768950) | 1 | 0.34 | -0.97 | 0.63 | 0.95
CG5768 (GeneID 42915) | 1 | -0.2 | 0.74 | -0.28 | 0.94
CG34375 (GeneID 42715) | 1 | 0.67 | 1.07 | -0.07 | -0.08
CG34375 (GeneID 42715) | 2 | -0.01 | 0 | 0.37 | 0.45
CG32248 (GeneID 317938) | 1 | -0.09 | -0.58 | – | -0.24
CG5555 (GeneID 42302) | 1 | -0.54 | -0.92 | 1.87 | -0.78
CG13071 (GeneID 39781) | 1 | -0.18 | -0.04 | 0.78 | 1.1
Nlg1 (GeneID 40913) | 1 | -2.22 | -1.85 | -0.85 | -0.72
Nlg1 (GeneID 40913) | 2 | -0.63 | -0.46 | 0.88 | 0.01
Nlg1 (GeneID 40913) | 3 | 0.2 | -1.62 | 0.36 | -0.63
Nlg1 (GeneID 40913) | 4 | 0.18 | 0.14 | 0.45 | -0.67
CG10581 (GeneID 40326) | 1 | -0.4 | 0.04 | -0.15 | 0.09
CG10151 (GeneID 36639) | 1 | 0.26 | 0.38 | 0.06 | -2.11
Cpr49Ac (GeneID 36348) | 1 | 0.75 | 0.61 | 0.88 | 0.23
CG12523 (GeneID 39216) | 1 | 0.18 | -0.09 | 1.1 | 0.2
